In publication PMC6627422 one finds binding data, which are given here for nine molecules.

Results are given in words; binding and its absence hold for the method and conditions named. A result given as binding can be weak or reduced; the word gives no strength. For part of these data: In cells and extracts the contact can be indirect. For part of these data: Where a sequence is shown, tags or fusion partners need not be part of it.

B1: nYFP:CsnF fusion for BiFC (protein, UniProt Q5BB47 1-386)
chain: MPDEAISILSQKSSDSGLHIQLHPLALLTISDHITRHAARSQQGPIVGGLLGQHNGREITVEHGFECVVEIGPNGEAQLPNEWFVDRVKQFKDVHKVPALDLIGWWSTAPPSGPTTAHLPIHRQILQNHNESAVFLTFHPSQVQGASQSQGKLPLTIYESVYEGESVTENGKAMQVDGEEQLLNIRFRELPYTIETGEAEMIGIDTVARTARNAAATETSTVAAPSSQIDSDKQEQQPANTDLLSPEEEELIASLNTRLNAIRTLESRISLIKSYLSSISPSSEEGQKDSATKPDHTILRDINSLLSNLSLLTPHEQSAFSAETLAQNNDVSLVALLGQLSQSVNGMREVGKRTAIVNSVRRNRKQLGAQSRYEDDILGRDGVALG
B2: nYFP:CsnB fusion for BiFC (protein, UniProt Q5B3U7 1-506)
chain: MSDDDDFMHDSADEEYDFEYEDADDDETGDIGIENKYYNAKQIKVDNPEEAIDEFLGVPALEQDKGDWGFKGLKQAIKLEFKLGRYSDAVEHYRELLTYVKSAVTRNYSEKSINNMLDYIEKGSDDEKAYQCMEEFYSLTLNSFQNTNNERLWLKTNIKLARLWLERREYGQLSKKVRELHRACQREDGSDDPSKGTYLLELYALEIQMYAETKNNKRLKALYQRALRVRSAVPHPKIMGIIRECGGKMHMSEENWEEAQSDFFESFRNYDEAGSMQRIQVLKYLVLTTMLMKSDINPFHSQETKPYKTDPRISAMTDLVDAFQRDDIHAYEEVLSKNPDVLADPFIAENIDEVSRNMRTKAILKLIAPYTRFTLSFISKHIKISVTEAQDILSFLILDKKLNAKIDQESGTVVVESASDVERLRSVEEWNESLRTLWQVTLKDGDGFKNDDVSQPTGIGMRGPLLYQSGLDDDTAGLLRSSGHRFRRGGKGSKAGGGLGMKTGLF
B3: CsnF, COP9 signalosome subunit, yeast two-hybrid prey (protein, UniProt Q5BB47 1-386)
chain: B1 chain
B4: CsnB, COP9 signalosome subunit, yeast two-hybrid prey (protein, UniProt Q5B3U7 1-506)
chain: B2 chain
B5: CsnD, COP9 signalosome subunit, yeast two-hybrid prey (protein, UniProt Q9C467 1-408)
chain: MPSQKIISALAEIESSASPQNKLQLYNDLLSETVSASPEPQLADDLIYYLDSVLSEDLSIVAARPILDSFIYTLRKLSSETQIKVAQHAVNLLQSRSASVEEQDAQIREILADAYEAEEEYIAAARALQGIHIDSSQRLVSDSAKVKLWIRIVRLYLEEDDTTSAEAFLNRIKNLPSKIEDHELKLHFRLSQARIQDARRRFLDASQEYFAVSLAAGVDESDRLQALAAAIRCAVLAPAGPQRSRTLATLYKDDRATSVEEFGILEKMFLDRLLTPEEVSAFAQRLAPHQLAQTADGTTVLDKAVVEHNLVAASKLYENIKTDALGAILGLQASGDLTAGEKAEAYAARMVEQGRLSGSIDQIDGIIYFESNTTATGRHIRQWDAGVQGLSEGVERVATNIAEGHLVR
B6: CsnG, COP9 signalosome subunit, yeast two-hybrid prey (protein, UniProt Q00648 1-327)
chain: MDQVHHRALDALQSFIALTDSSSATSPRYIASIITNATSSPHTYVFAELLERPAVQALRSPDTPAEFQSYLTLLEIFAWGTWQDYQQTPNLPPLSEEQARKLRLLTLLSLASTIKPLTYEALMTSLSLSAPSELESLVTTAIYSSLITGRLSPATNPPTVNVTSVAPLRDVKPSSLPTMISTLTAWEARCGSVISDIETEIAKIRADSAQRRQKEHARAVAIEKTLEKWNAEGGEQLQGGNPGQGQGQGQGGLGKNAGWKPRDLSTAMFERGFFGGGSNKREFDDDGYFDGGSSDFDQHGSGMDIDEGAGARASGARHSKRFLGKKS
B7: CsnE, catalytically active COP9 signalosome subunit, yeast two-hybrid prey (protein, UniProt Q5BBF1 1-335)
chain: MQAAQLSWELENAVTLIDPQRDSLYRYDEETHKYLSDTRPWTKDPHYFKSVRISAVALLKMVMHARSGGSLEVMGLMQGYILPNTFVVTDAFRLPVEGTETRVNAQDEANEYMVSYLQSCREAGRMENAVGWYHSHPGYGCWLSGIDVSTQDMQQMSGPFVAVVIDPERTISAGKVDIGAFRTFPKDYTPPKEEQEEDEYQTVPLNKAEDFGAHASHYYSLEVSLFKSALDTEILSLLWNKYWVATLSQSPLFTTRDYGSKQMLDLSQKTRRVARGIESNPPRGGAPTQVRDQQLERVVKDGQRIVSEEVKGLLAAEVKMQLFQGIGGKQTVEST
B8: CsnC, COP9 signalosome subunit, yeast two-hybrid prey (protein, UniProt Q5B0Y2 1-496)
chain: MSDFLAYLTSAPSRPHGSANITDKCYDHQLRDLIAYLKQPGVAPSTADINGYLEAISPAVHSLSYLYLLRIRIQQLQEKTAVGVPNDLQPGGTLWNQTVKFLRSFDPIQIRYVGHEWRELVDSVANAALSVSKPILAVKMIRDALERLNTAGVFTSLHLMLVKLALLSSSYTYVLPVLDKLLCHFPSDTQNAHAGILLCSEHEPSTVFFTDSSGFSANLTYRDHLQFYMYSGMVYMALKKWDQASHCLGIVISAPTANSVSKIMVEAYKKWVLANLLGHGKLFSVPNLVAPHVTRVYQSLSKPYISLAEAFEKRDFQRLRTEISLGQTIWRADKNSGLVYQVFEAYDKFLIIKLGKTFSALTMPDVLQRASSCSKGSRDIEEFVVSLVMTKELRAKLSHSPGNETTTMLRFPLSSQSHALREEHIRFRLIQKEAALNTISRAITQTKITLETSHENLQVIAKNQKLAGSSERSGVVGSTEADGGGDLDEDLMGDGR
B9: CsnA, COP9 signalosome subunit, yeast two-hybrid prey (protein, UniProt Q5BD89 1-498)
chain: MEPMLPEAGEAALLSSYAPQASGSMGVDPDPITGLVSTSAAPLVRVEEAPKFELESYIANYTGRTRFNRLYLIGTCSSYLAVDALKAAIAEAKSGKDVARYLRAVQALADVAPNEPEATIDSDWVERSQKVVKAETDRLEHELRGYKNNLIKESIRMGNEELGQHYHRIGDLTSAFKAYSRMRDFCTTPSHIASMLFKIINVAIERGDWLNVQSNVHRLRSQGGKPEEQAKHQPKISAAMGLSQLHSGSYLEAANSFIATDPSLGDTFNEVLTSNDVAVYGGLCALASMDRNELQRRVLDNSSFRNFLELEPHIRRAISFFCNSKFRPCLEILEAYRADYLLDIHLQRHVQVLYNRIRTKSIQQYLIPFNRVSLESMAKIFVLGNPTSQSSQSDSKSAFVQELISLIQDGTLDARIDLEKHVLVSTQGDKRIEVQEAVLDSLDNYVREAHLRLLRSNIIRAGLEVRPLGEDRRTKLEERGKKGHSAIGNLLRATGMKQ

One test concerns the target cYFP:UspA fusion for BiFC (Aspergillus nidulans). The test can be described thus: split reporter; BiFC with halves of YFP in A. nidulans hyphae during vegetative development, 20 h in light at 37 °C; nuclei marked by RFP-H2A.
As for B1, the binding entry is reported as “binds”.

As for B2, the binding entry was “binds”.

The next test addresses UspA (ubiquitin-specific protease A), yeast two-hybrid bait (Aspergillus nidulans). The test can be described thus: two-hybrid; UspA as bait (pEG202), single CSN subunits as prey (pJG4-5) in S. cerevisiae EGY48; LEU2 reporter, growth on galactose/raffinose medium lacking leucine, three to five days at 30 °C.
With B3, the binding entry is given as “binds”.

B4: the binding entry is recorded as “binds”.

Consider B5, for which the binding result is on record as “binds”.

In the case of B6, the binding result was “no binding”.

For the molecule B7, the binding entry is on record as “binds”.

Regarding B8, the binding entry is recorded as “no binding”.

In the case of B9, the binding entry is on record as “binds”.
